{"source": "paper PMC10296995", "about": "(Cells, 2023)", "test": "peptide made by a vendor (Fmoc solid-phase peptide synthesis)", "conditions": "whole synthesis", "note": "Some peptides are written in HELM: one residue between dots, names in brackets for other building blocks, links after the first $.", "data": [{"substance": "PEPTIDE1{[ac].S.D.K.P}$$$$V2.0", "values": [{"measurement": "purity (crude or final not stated)", "value": ">98", "unit": "%"}]}]}
